The text below walks through data of PMC3474958, “pH-sensitive Self-associations of the N-terminal Domain of NBCe1-A Suggest a Compact Conformation under Acidic Intracellular Conditions” (Protein and Peptide Letters, 2012).

These are yes or no findings as the source states them, for the method shown.

In this assay the target is cytoplasmic, N-terminal domain of NBCe1-A (residues 1 to 362) (human) (UniProt Q9Y6R1). Put plainly: SEC-MALS; ~2 mg/ml (0.5 ml) on Superdex-200 HR 10/30; 50 mM Tris, 150 mM NaCl, 1 mM TCEP; pH 11.5; both purified.

B1: cytoplasmic, N-terminal domain of NBCe1-A (residues 1 to 362) (domain or fragment, human, UniProt Q9Y6R1-2 1-362, looked up)
chain: MSTENVEGKPSNLGERGRARSSTFLRVVQPMFNHSIFTSAVSPAAERIRFILGEEDDSPAPPQLFTELDELLAVDGQEMEWKETARWIKFEEKVEQGGERWSKPHVATLSLHSLFELRTCMEKGSIMLDREASSLPQLVEMIVDHQIETGLLKPELKDKVTYTLLRKHRHQTKKSNLRSLADIGKTVSSASRMFTNPDNGSPAMTHRNLTSSSLNDISDKPEKDQLKNKFMKKLPRDAEASNVLVGEVDFLDTPFIAFVRLQQAVMLGALTEVPVPTRFLFILLGPKGKAKSYHEIGRAIATLMSDEVFHDIAYKAKDRHDLIAGIDEFLDEVIVLPPGEWDPAIRIEPPKSLPSSDKRKNM
notes: NBCe1-A, sodium-bicarbonate cotransporter variant 1A (SLC4 family), cytoplasmic N-terminal domain, residues 1 to 362; theoretical mass of the monomer 40.6 kDa, of the dimer 81.2 kDa; Exists in a concentration- and pH-dependent equilibrium of monomer, dimer and higher-order clusters; also called NtNBCe1-A; NtNBCe1
Regarding B1, the binding entry is reported as “no binding (condition: at pH 11.5)”.
